Article PMC7910609
No constants are given. Whether binding was seen depends on the method and setting. Some binding calls cover weakened binding; strength is not graded here.

The chains behind the UniProt entries cited, without tags or fusion partners.
UniProt P31749: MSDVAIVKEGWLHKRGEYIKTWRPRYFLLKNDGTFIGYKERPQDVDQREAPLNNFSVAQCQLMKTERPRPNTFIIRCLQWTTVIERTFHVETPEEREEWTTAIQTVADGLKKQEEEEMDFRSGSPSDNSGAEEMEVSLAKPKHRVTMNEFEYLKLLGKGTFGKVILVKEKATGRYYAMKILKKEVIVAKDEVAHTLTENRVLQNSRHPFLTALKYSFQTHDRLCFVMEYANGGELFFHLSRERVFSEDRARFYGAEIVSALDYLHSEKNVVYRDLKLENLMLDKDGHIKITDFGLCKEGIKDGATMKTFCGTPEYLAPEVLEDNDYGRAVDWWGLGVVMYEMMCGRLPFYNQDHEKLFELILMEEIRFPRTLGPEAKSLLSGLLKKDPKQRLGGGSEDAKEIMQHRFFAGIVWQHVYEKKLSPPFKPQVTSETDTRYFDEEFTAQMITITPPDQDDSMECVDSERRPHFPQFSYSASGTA
UniProt Q9NVI1: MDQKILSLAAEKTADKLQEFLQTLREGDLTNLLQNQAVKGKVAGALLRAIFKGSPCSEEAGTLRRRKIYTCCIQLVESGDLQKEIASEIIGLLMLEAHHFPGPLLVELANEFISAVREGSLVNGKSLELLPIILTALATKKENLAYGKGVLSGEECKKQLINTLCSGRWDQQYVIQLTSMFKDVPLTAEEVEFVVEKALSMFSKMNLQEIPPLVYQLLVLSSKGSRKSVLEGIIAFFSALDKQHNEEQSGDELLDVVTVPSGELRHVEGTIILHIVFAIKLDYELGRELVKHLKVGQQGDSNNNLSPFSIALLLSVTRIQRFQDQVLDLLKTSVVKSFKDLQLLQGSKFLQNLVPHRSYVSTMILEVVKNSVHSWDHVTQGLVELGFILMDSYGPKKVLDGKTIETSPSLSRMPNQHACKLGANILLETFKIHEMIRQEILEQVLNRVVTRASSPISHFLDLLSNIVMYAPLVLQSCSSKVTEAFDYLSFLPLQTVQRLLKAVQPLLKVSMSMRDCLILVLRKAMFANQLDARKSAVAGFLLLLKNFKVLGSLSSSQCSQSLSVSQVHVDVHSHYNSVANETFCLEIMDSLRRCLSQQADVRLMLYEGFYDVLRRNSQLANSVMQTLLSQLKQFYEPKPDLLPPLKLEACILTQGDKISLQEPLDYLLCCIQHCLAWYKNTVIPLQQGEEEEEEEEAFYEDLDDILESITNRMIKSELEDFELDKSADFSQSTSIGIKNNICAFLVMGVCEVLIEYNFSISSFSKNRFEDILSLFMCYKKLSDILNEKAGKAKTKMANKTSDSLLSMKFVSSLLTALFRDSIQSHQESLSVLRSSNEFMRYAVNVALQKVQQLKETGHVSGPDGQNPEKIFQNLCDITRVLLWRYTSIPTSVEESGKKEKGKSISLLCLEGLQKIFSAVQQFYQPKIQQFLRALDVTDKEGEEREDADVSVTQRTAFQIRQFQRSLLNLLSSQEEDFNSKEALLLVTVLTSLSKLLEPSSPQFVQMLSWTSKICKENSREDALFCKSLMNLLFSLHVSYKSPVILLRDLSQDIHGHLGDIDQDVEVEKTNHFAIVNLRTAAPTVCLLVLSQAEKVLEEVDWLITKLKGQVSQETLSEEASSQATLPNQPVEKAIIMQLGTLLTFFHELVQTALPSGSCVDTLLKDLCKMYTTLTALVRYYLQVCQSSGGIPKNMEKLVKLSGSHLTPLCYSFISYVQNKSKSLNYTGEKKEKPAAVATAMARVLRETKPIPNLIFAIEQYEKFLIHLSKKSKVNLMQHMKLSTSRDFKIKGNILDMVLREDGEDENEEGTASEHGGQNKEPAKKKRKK
UniProt Q7L5D6: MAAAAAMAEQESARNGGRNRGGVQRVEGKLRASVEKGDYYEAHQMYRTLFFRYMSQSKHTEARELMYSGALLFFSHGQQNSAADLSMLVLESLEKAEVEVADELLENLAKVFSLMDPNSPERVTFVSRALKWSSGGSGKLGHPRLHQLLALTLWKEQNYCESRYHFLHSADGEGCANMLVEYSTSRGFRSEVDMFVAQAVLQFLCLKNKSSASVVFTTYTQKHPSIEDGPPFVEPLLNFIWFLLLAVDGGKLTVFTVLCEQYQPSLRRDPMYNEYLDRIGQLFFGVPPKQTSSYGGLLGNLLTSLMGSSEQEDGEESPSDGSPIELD

B1: PHLPP2 (protein, UniProt Q6ZVD8 1-1323)
chain: MKRNGSRNCLNRRSRFGSRERDWLREDVKRGCVYLYGADTTTATTTTTTSSSSSSSSSSSDLHLVLCTVETPASEICAGEGRESLYLQLHGDLVRRLEPTERPLQIVYDYLSRLGFDDPVRIQEEATNPDLGCMIRFYGEKPCHMDRLDRILLSGIYNVRKGKTQLHKWAERLVVLCGTCLIVSSVKDCQTGKMHILPLVGGKIEEVKRRQYSLAFSSAGAQAQTYHVSFETLAEYQRWQRQASKVVSQRISTVDLSCYSLEEVPEHLFYSQDITYLNLRHNFMQLERPGGLDTLYKFSQLKGLNLSHNKLGLFPILLCEISTLTELNLSCNGFHDLPSQIGNLLNLQTLCLDGNFLTTLPEELGNLQQLSSLGISFNNFSQIPEVYEKLTMLDRVVMAGNCLEVLNLGVLNRMNHIKHVDLRMNHLKTMVIENLEGNKHITHVDLRDNRLTDLDLSSLCSLEQLHCGRNQLRELTLSGFSLRTLYASSNRLTAVNVYPVPSLLTFLDLSRNLLECVPDWACEAKKIEVLDVSYNLLTEVPVRILSSLSLRKLMLGHNHVQNLPTLVEHIPLEVLDLQHNALTRLPDTLFSKALNLRYLNASANSLESLPSACTGEESLSMLQLLYLTNNLLTDQCIPVLVGHLHLRILHLANNQLQTFPASKLNKLEQLEELNLSGNKLKTIPTTIANCKRLHTLVAHSNNISIFPEILQLPQIQFVDLSCNDLTEILIPEALPATLQDLDLTGNTNLVLEHKTLDIFSHITTLKIDQKPLPTTDSTVTSTFWSHGLAEMAGQRNKLCVSALAMDSFAEGVGAVYGMFDGDRNEELPRLLQCTMADVLLEEVQQSTNDTVFMANTFLVSHRKLGMAGQKLGSSALLCYIRPDTADPASSFSLTVANVGTCQAVLCRGGKPVPLSKVFSLEQDPEEAQRVKDQKAIITEDNKVNGVTCCTRMLGCTYLYPWILPKPHISSTPLTIQDELLILGNKALWEHLSYTEAVNAVRHVQDPLAAAKKLCTLAQSYGCQDNVGAMVVYLNIGEEGCTCEMNGLTLPGPVGFASTTTIKDAPKPATPSSSSGIASEFSSEMSTSEVSSEVGSTASDEHNAGGLDTALLPRPERRCSLHPTPTSGLFQRQPSSATFSSNQSDNGLDSDDDQPVEGVITNGSKVEVEVDIHCCRGRDLENSPPLIESSPTLCSEEHARGSCFGIRRQNSVNSGMLLPMSKDRMELQKSPSTSCLYGKKLSNGSIVPLEDSLNLIEVATEVPKRKTGYFAAPTQMEPEDQFVVPHDLEEEVKEQMKQHQDSRLEPEPHEEDRTEPPEEFDTAL
B2: MAZ (protein, UniProt P56270 1-477)
chain: MFPVFPCTLLAPPFPVLGLDSRGVGGLMNSFPPPQGHAQNPLQVGAELQSRFFASQGCAQSPFQAAPAPPPTPQAPAAEPLQVDLLPVLAAAQESAAAAAAAAAAAAAVAAAPPAPAAASTVDTAALKQPPAPPPPPPPVSAPAAEAAPPASAATIAAAAATAVVAPTSTVAVAPVASALEKKTKSKGPYICALCAKEFKNGYNLRRHEAIHTGAKAGRVPSGAMKMPTMVPLSLLSVPQLSGAGGGGGEAGAGGGAAAVAAGGVVTTTASGKRIRKNHACEMCGKAFRDVYHLNRHKLSHSDEKPYQCPVCQQRFKRKDRMSYHVRSHDGAVHKPYNCSHCGKSFSRPDHLNSHVRQVHSTERPFKCEKCEAAFATKDRLRAHTVRHEEKVPCHVCGKMLSSAYISDHMKVHSQGPHHVCELCNKGTGEVCPMAAAAAAAAAAAAAAVAAPPTAVGSLSGAEGVPVSSQPLPSQPW

target: protein kinase B (AKT1) (UniProt P31749); assay: thermal proteome profiling (TPP); 500 nM AKT1 alone added to cell lysate with phosphatase inhibitors, 37 °C for 30 min; aliquots heated at 37-67 °C for 3 min; soluble fraction quantified by TMT LC-MS/MS; read-out is the Tm shift against vehicle; duplicates; only the target purified

binding, binds:
FANCI (from UniProt Q9NVI1 1-1328), GET4 (from UniProt Q7L5D6 1-327), B1, B2
